Test results published in publication PMC7890977.
These are yes or no findings as the source states them, for the method shown. Binding seen in cells or lysates may run through a third protein.

Target: T1, Syntaxin 6, endogenous in HEK-APP cells (human (endogenous in HEK293)) (UniProt O43752)
T1 sequence: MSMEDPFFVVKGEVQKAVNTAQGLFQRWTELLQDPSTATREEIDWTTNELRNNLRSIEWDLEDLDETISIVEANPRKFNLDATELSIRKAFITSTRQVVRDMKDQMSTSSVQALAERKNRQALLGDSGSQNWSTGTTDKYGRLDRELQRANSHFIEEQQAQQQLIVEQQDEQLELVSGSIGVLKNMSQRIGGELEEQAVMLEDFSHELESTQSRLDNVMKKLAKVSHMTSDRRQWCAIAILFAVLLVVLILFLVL
Experiment: co-IP; 100 μg protein extract of HEK-APP cells (lysis buffer 25 mM Tris HCl pH 7.5, 150 mM NaCl, 0.5% Triton X-100); 1 μg mAb anti-CERTL (3A1-C1), anti-Aβ/APP 6E10 or anti-syntaxin 6 (isotype control), 1 h at room temperature; immune complexes brought down with anti-mouse secondary antibodies; Western blot with 6E10 and rabbit pAb anti-CERTs

- binding: no binding
Substance: Ceramide transfer protein, long isoform (CERTL), endogenous in HEK-APP cells (from UniProt Q9Y5P4-1 1-624)
